Test results reported in the supplement of paper PMC8728848.
This is one part of the list.

Columns and labels:
Assay in all cases: glycan array binding signal (z-score within array); higher = stronger binding
Details in all cases: glycan notation: IUPAC condensed, linker removed
[1] = molecular target: Neu5Ac(a2-3)Gal(b1-4)GlcNAc(b1-2)[Neu5Ac(a2-3)Gal(b1-4)GlcNAc(b1-2)]Man(a1-6)[Neu5Ac(a2-3)Gal(b1-4)GlcNAc(b1-2)Man(a1-3)][GlcNAc(b1-4)]Man(b1-4)GlcNAc(b1-4)GlcNAc
In short: (§1)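 Glycan array data came from 3228 arrays in the Consortium for Functional Glycomics database, and only arrays with an available protein sequence were kept. Glycan names were put into IUPAC-condensed notation, and columns mapping to the same glycan were averaged. The binding signal is a within-array Z-score, averaged across arrays of one protein sequence run at different concentrations or buffers and across linkers. A negative Z-score can be read as non-binding.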

[2] = molecular target: Neu5Ac(a2-3)Gal(b1-4)GlcNAc(b1-2)[Neu5Ac(a2-3)Gal(b1-4)GlcNAc(b1-4)]Man(a1-3)[GlcNAc(b1-4)][Neu5Ac(a2-3)Gal(b1-4)GlcNAc(b1-2)[Neu5Ac(a2-3)Gal(b1-4)GlcNAc(b1-6)]Man(a1-6)]Man(b1-4)GlcNAc(b1-4)GlcNAc
In short: as §1

[3] = molecular target: Neu5Ac(a2-3)Gal(b1-4)GlcNAc(b1-2)[Neu5Ac(a2-3)Gal(b1-4)GlcNAc(b1-4)]Man(a1-3)[GlcNAc(b1-4)][Neu5Ac(a2-3)Gal(b1-4)GlcNAc(b1-4)Man(a1-6)]Man(b1-4)GlcNAc(b1-4)GlcNAc
In short: as §1

[4] = molecular target: Neu5Ac(a2-3)Gal(b1-4)GlcNAc(b1-2)[Neu5Ac(a2-3)Gal(b1-4)GlcNAc(b1-6)]Man(a1-6)[Neu5Ac(a2-3)Gal(b1-4)GlcNAc(b1-2)Man(a1-3)]Man(b1-4)GlcNAc(b1-4)GlcNAc
In short: as §1

[5] = molecular target: Neu5Ac(a2-3)Gal(b1-4)GlcNAc(b1-3)Gal
In short: as §1

[6] = molecular target: Neu5Ac(a2-3)Gal(b1-4)GlcNAc(b1-3)Gal(b1-3)GlcNAc
In short: as §1

[7] = molecular target: Neu5Ac(a2-3)Gal(b1-4)GlcNAc(b1-3)Gal(b1-4)GlcNAc
In short: as §1

[8] = molecular target: Neu5Ac(a2-3)Gal(b1-4)GlcNAc(b1-3)Gal(b1-4)GlcNAc(b1-2)Man(a1-3)[Neu5Ac(a2-3)Gal(b1-4)GlcNAc(b1-3)Gal(b1-4)GlcNAc(b1-2)Man(a1-6)]Man(b1-4)GlcNAc(b1-4)GlcNAc
In short: as §1

[9] = molecular target: Neu5Ac(a2-3)Gal(b1-4)GlcNAc(b1-3)Gal(b1-4)GlcNAc(b1-3)Gal(b1-4)GlcNAc
In short: as §1

[10] = molecular target: Neu5Ac(a2-3)Gal(b1-4)GlcNAc(b1-3)Gal(b1-4)GlcNAc(b1-3)Gal(b1-4)GlcNAc(b1-2)Man(a1-3)[Neu5Ac(a2-3)Gal(b1-4)GlcNAc(b1-3)Gal(b1-4)GlcNAc(b1-3)Gal(b1-4)GlcNAc(b1-2)Man(a1-6)]GalNAc
In short: as §1

[11] = molecular target: Neu5Ac(a2-3)Gal(b1-4)GlcNAc(b1-3)Gal(b1-4)GlcNAc(b1-3)GalNAc
In short: as §1

[12] = molecular target: Neu5Ac(a2-3)Gal(b1-4)GlcNAc(b1-3)Gal(b1-4)GlcNAc(b1-3)[Neu5Ac(a2-3)Gal(b1-4)GlcNAc(b1-3)Gal(b1-4)GlcNAc(b1-6)]GalNAc
In short: as §1

[13] = molecular target: Neu5Ac(a2-3)Gal(b1-4)GlcNAc(b1-3)Gal(b1-4)GlcNAc(b1-6)[Gal(b1-3)]GalNAc
In short: as §1

[14] = molecular target: Neu5Ac(a2-3)Gal(b1-4)GlcNAc(b1-3)Gal(b1-4)[Fuc(a1-3)]GlcNAc
In short: as §1

[15] = molecular target: Neu5Ac(a2-3)Gal(b1-4)GlcNAc(b1-3)GalNAc
In short: as §1

[16] = molecular target: Neu5Ac(a2-3)Gal(b1-4)GlcNAc(b1-3)[Neu5Ac(a2-3)Gal(b1-4)GlcNAc(b1-6)]GalNAc
In short: as §1

[17] = molecular target: Neu5Ac(a2-3)Gal(b1-4)GlcNAc(b1-6)GalNAc
In short: as §1

[18] = molecular target: Neu5Ac(a2-3)Gal(b1-4)GlcNAc(b1-6)[Gal(b1-3)]GalNAc
In short: as §1

[19] = molecular target: Neu5Ac(a2-3)Gal(b1-4)GlcNAc(b1-6)[Neu5Ac(a2-3)Gal(b1-3)]GalNAc
In short: as §1

[20] = molecular target: Neu5Ac(a2-3)Gal(b1-4)GlcNAc6S
In short: as §1

[21] = molecular target: Neu5Ac(a2-3)Gal(b1-4)[Fuc(a1-3)]GlcNAc
In short: as §1

[22] = molecular target: Neu5Ac(a2-3)Gal(b1-4)[Fuc(a1-3)]GlcNAc(b1-2)Man
In short: as §1

[23] = molecular target: Neu5Ac(a2-3)Gal(b1-4)[Fuc(a1-3)]GlcNAc(b1-3)Gal
In short: as §1

[24] = molecular target: Neu5Ac(a2-3)Gal(b1-4)[Fuc(a1-3)]GlcNAc(b1-3)Gal(b1-4)GlcNAc
In short: as §1

[25] = molecular target: Neu5Ac(a2-3)Gal(b1-4)[Fuc(a1-3)]GlcNAc(b1-3)Gal(b1-4)[Fuc(a1-3)]GlcNAc(b1-3)Gal(b1-4)[Fuc(a1-3)]GlcNAc
In short: as §1

[26] = molecular target: Neu5Ac(a2-3)Gal(b1-4)[Fuc(a1-3)]GlcNAc(b1-3)GalNAc
In short: as §1

[27] = molecular target: Neu5Ac(a2-3)Gal(b1-4)[Fuc(a1-3)]GlcNAc(b1-6)[Gal(b1-3)]GalNAc
In short: as §1

[28] = molecular target: Neu5Ac(a2-3)Gal(b1-4)[Fuc(a1-3)]GlcNAc(b1-6)[Neu5Ac(a2-3)Gal(b1-3)]GalNAc
In short: as §1

[29] = molecular target: Neu5Ac(a2-3)Gal(b1-4)[Fuc(a1-3)]GlcNAc6S
In short: as §1

[30] = molecular target: Neu5Ac(a2-3)Gal6S(b1-4)GlcNAc
In short: as §1

[31] = molecular target: Neu5Ac(a2-3)Gal6S(b1-4)[Fuc(a1-3)]GlcNAc
In short: as §1

Neu5Ac(a2-3)GalNAc = molecular target: Neu5Ac(a2-3)GalNAc
In short: as §1

[32] = molecular target: Neu5Ac(a2-3)GalNAc(b1-4)GlcNAc
In short: as §1

[33] = molecular target: Neu5Ac(a2-3)[GalNAc(b1-4)]Gal(b1-4)Glc
In short: as §1

[34] = molecular target: Neu5Ac(a2-3)[GalNAc(b1-4)]Gal(b1-4)GlcNAc
In short: as §1

[35] = molecular target: Neu5Ac(a2-3)[GalNAc(b1-4)]Gal(b1-4)GlcNAc(b1-3)GalNAc
In short: as §1

[36] = molecular target: Neu5Ac(a2-3)[Neu5Ac(a2-6)]GalNAc
In short: as §1

B1: RbmA (Vibrio cholerae), A0A2H4NFB8 (protein)
chain: MSNFKGSIMNKRHYYLASCLALLFSTASYAEVDCELQPVIEANLSLNQNQLASNGGYISSQLGIRNESCETVKFKYWLSIKGPEGIYFPAKAVVGVDTAQQESDALTDGRMLNVTRGFWVPEYMADGKYTVSLQVVAENGEVFKANQEFVKGGDLNSLPELNGLTIDIKNQFGINSVESTGGFVPFTIDLNNGREGEAKVEFWMTAVGPDGLIIPVHSREKWMIIAGNTFSKVRGINFDKSYPAGEYTINAQVVDIVSGERVEQLMTVVKK
Q: With B1 as the binder, how does the “glycan array binding signal (z-score)” value [1] read?
A: -0.452

Q: And the “glycan array binding signal (z-score)” value [2]?
A: 1.66

Q: And the “glycan array binding signal (z-score)” value [3]?
A: 2.63

Q: And the “glycan array binding signal (z-score)” value [4]?
A: 0.163

Q: What about the “glycan array binding signal (z-score)” value [5] of the same binder?
A: 0.04

Q: And the “glycan array binding signal (z-score)” value [6]?
A: -0.862

Q: What about the “glycan array binding signal (z-score)” value [7] of the same binder?
A: 0.402

Q: What about the “glycan array binding signal (z-score)” value [8] of the same binder?
A: -0.354

Q: And the “glycan array binding signal (z-score)” value [9]?
A: -0.749

Q: And the “glycan array binding signal (z-score)” value [10]?
A: 0.862

Q: And the “glycan array binding signal (z-score)” value [11]?
A: 0.248

Q: What about the “glycan array binding signal (z-score)” value [12] of the same binder?
A: -0.228

Q: And the “glycan array binding signal (z-score)” value [13]?
A: -0.096

Q: And the “glycan array binding signal (z-score)” value [14]?
A: -0.402

Q: And the “glycan array binding signal (z-score)” value [15]?
A: -0.626

Q: And the “glycan array binding signal (z-score)” value [16]?
A: 0.017

Q: And the “glycan array binding signal (z-score)” value [17]?
A: -0.174

Q: What about the “glycan array binding signal (z-score)” value [18] of the same binder?
A: -0.604

Q: And the “glycan array binding signal (z-score)” value [19]?
A: -0.282

Q: What about the “glycan array binding signal (z-score)” value [20] of the same binder?
A: 3

Q: And the “glycan array binding signal (z-score)” value [21]?
A: -0.877

Q: And the “glycan array binding signal (z-score)” value [22]?
A: 0.266

Q: And the “glycan array binding signal (z-score)” value [23]?
A: -0.658

Q: What about the “glycan array binding signal (z-score)” value [24] of the same binder?
A: -0.327

Q: What about the “glycan array binding signal (z-score)” value [25] of the same binder?
A: 2.66

Q: And the “glycan array binding signal (z-score)” value [26]?
A: 3.93

Q: And the “glycan array binding signal (z-score)” value [27]?
A: -0.351

Q: And the “glycan array binding signal (z-score)” value [28]?
A: 0.142

Q: And the “glycan array binding signal (z-score)” value [29]?
A: -0.009

Q: What about the “glycan array binding signal (z-score)” value [30] of the same binder?
A: -0.128

Q: And the “glycan array binding signal (z-score)” value [31]?
A: -1.05

Q: What about the “glycan array binding signal (z-score)” value (Neu5Ac(a2-3)GalNAc) of the same binder?
A: -1.03

Q: What about the “glycan array binding signal (z-score)” value [32] of the same binder?
A: 0.243

Q: And the “glycan array binding signal (z-score)” value [33]?
A: -0.899

Q: What about the “glycan array binding signal (z-score)” value [34] of the same binder?
A: -1.04

Q: And the “glycan array binding signal (z-score)” value [35]?
A: -0.426

Q: What about the “glycan array binding signal (z-score)” value [36] of the same binder?
A: -0.949
